Experimental data published in publication PMC7505839.
These are yes or no findings as the source states them, for the method shown. In cells and extracts the contact can be indirect. Some binding calls cover weakened binding; strength is not graded here.

Amino acid sequences for entries named in this document (tags omitted).
UniProt P62258: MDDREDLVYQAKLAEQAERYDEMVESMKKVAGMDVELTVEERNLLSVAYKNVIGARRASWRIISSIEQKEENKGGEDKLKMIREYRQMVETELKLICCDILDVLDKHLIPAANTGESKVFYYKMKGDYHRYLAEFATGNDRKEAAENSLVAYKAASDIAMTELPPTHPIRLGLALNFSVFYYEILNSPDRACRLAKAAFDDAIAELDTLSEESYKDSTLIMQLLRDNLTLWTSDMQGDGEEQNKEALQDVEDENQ

Molecular target: 14-3-3ε (human (endogenous in HuCCT1)) (UniProt P62258)
Assay: co-IP; HuCCT1 cells pre-treated with 20 μM MG-132 for 2 h, 0.0 μM ATO for 6 h; 100 μg lysate protein incubated with 14-3-3ε antibody at 4 °C overnight, IgA plus IgG sepharose beads, western blot

binding: binds
B1: 14-3-3η (protein, UniProt Q04917 1-246)
chain: MGDREQLLQRARLAEQAERYDDMASAMKAVTELNEPLSNEDRNLLSVAYKNVVGARRSSWRVISSIEQKTMADGNEKKLEKVKAYREKIEKELETVCNDVLSLLDKFLIKNCNDFQYESKVFYLKMKGDYYRYLAEVASGEKKNSVVEASEAAYKEAFEISKEQMQPTHPIRLGLALNFSVFYYEIQNAPEQACLLAKQAFDDAIAELDTLNEDSYKDSTLIMQLLRDNLTLWTSDQQDEEAGEGN
